Reference: patent publication US20220275095A1
Results are given in words; binding and its absence hold for the method and conditions named. Some binding calls cover weakened binding; strength is not graded here.

T1: hFzd8 (human) (UniProt Q9H461)
T1 sequence (looked up): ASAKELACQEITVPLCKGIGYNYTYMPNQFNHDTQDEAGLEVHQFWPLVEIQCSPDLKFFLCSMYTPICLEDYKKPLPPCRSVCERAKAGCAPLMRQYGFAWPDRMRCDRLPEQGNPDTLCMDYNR


Key:
[1] = molecular target: Fzd2 hinge protein (Fzd2 protein with the hinge region) (Homo sapiens (Human)) (UniProt Q14332); test: BLI (Octet Red 96), biotinylated Fzd2 hinge protein on streptavidin biosensor
hFzd8 (human) = molecular target: T1, hFzd8 (human); test: phage ELISA

| binding [1] | binding (hFzd8 (human)) | Binder |
| --- | --- | --- |
| binds | – | 031S-B02 Fab (Fab, V domains shown) VH: EVQLLESGGGLVQPGGSLRLSCAASGFTFSSYWMSWVRQAPGKGLEWVSAIGGSGANAYYADSVKGRFTISRDNSKNTLYLQMNSLRAEDTAVYYCVRDTNWAFDLWGQGTMVTVSS VL: EIVMTQSPATLSVSPGERATLSCRASQSVSGSYLAWYQQKPGQAPRLLIYGASTRATGIPARFSGSGSGTEFTLTISSLQSEDFAVYYCQQYGSSPLTFGQGTKVEIK |
| – | binds | 027S-E5 (Fab, V domains shown) VH: QVQLEQSGAEVKKPGASVKVSCKASGGTFSSYAISWVRQAPGQGLEWMGMINPSGGSTTYAQKFQGRVTMTRDTSTSTVYMELSSLRSEDTAVYYCARQAGLHCSSTSCYLGNWFDPWGQGTLVTVSS VL: DIQMTQSPSSLSASVGDRVTITCRASQGITKSLAWYQQKPGKAPKLLIYAASNLATGVPSRFSGSGSGTDFTLTISSLQPEDFATYYCQQYNTFPITFGQGTRLEIKR |
